Data taken from publication PMC6076264.
Results are given in words; binding and its absence hold for the method and conditions named.

Chains of the proteins cited; added tags and fusions are not shown. Lines headed by an entry give the natural chain unless they say otherwise; changes in a name come on top.
UniProt P0A7I0: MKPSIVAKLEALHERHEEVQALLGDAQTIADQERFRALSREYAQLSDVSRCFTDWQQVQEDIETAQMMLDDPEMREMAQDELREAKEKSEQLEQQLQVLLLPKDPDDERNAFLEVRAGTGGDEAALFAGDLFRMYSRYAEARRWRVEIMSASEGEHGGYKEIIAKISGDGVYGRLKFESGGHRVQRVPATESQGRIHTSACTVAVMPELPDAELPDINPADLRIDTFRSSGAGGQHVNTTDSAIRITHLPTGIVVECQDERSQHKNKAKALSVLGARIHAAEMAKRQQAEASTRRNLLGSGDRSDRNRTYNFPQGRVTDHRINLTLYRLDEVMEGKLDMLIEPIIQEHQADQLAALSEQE
UniProt P0A7I4: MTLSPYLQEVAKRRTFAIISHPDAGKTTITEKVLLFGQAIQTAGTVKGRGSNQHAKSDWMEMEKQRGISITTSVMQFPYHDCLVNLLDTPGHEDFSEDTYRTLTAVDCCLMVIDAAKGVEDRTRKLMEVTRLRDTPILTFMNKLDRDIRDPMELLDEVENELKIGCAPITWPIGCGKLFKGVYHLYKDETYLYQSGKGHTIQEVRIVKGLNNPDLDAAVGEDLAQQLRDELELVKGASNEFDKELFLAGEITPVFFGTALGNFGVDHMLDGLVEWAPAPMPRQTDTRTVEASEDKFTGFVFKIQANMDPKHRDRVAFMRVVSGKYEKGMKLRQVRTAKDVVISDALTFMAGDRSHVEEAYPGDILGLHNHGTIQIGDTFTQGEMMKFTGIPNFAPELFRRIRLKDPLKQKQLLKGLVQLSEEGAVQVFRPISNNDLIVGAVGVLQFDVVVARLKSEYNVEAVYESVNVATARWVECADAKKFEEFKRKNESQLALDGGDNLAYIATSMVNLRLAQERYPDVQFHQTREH

Target: RF1-GAQ (RF1-G234A) (UniProt P0A7I0)
Experiment: cryo-EM structure; 70S-tRNA(fMet) complexes on start-stop mRNA with 2.5x RF1-GAQ and 50 uM API, then 7.5x RF3-GDPCP; buffer A (30 mM HEPES pH 7.4, 70 mM NH4Cl, 5 mM MgCl2, 30 mM KCl); states I-IV at 3.8-3.9 A and RF3-70S; both purified

RF3 (release factor 3), bound to GDPCP (from UniProt P0A7I4 1-529)
binding: no binding
